Our source for the cell number change and AC50 values is PubChem BioAssay AID2685 (National Center for Advancing Translational Sciences (NCATS), 2010).

Each structure is given as a SMILES string. This is one part of the list. These are further read-outs of the screen, such as a control signal, another cell line or another target. No call is given for them. Most of these compounds were active or inconclusive in the main read-out, so they are no random draw. Potencies come from curve fits of mixed quality, noted in brackets.

This assay is described as follows: qHTS Assay for Lipid Storage Modulators in Drosophila S3 Cells.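 For cell number change: cells counted by Cell Tracker Red CMTPX staining in the red channel.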 The following applies: BODIPY lipid droplet fluorescence, 18-24 h; for cell number change: measured here: cell count max response, cells fed with added oleic acid. An outline of the steps: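 Drosophila S3 cells got compounds at several concentrations plus oleic acid (400 uM solution). Laser-scanning cytometry with 488 nm excitation read lipid droplets at 500-530 nm and cells at 575-640 nm. Percent activity was relative to 20 uM Triacsin C.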
(In qHTS, concentration-response curves come from the screen itself.)

The mark [1] stands for this setting: measured here: lipid fluorescence (Fed channel) AC50, cells fed with added oleic acid.
Where [2] appears, read: measured here: cell number channel AC50, cells fed with added oleic acid.

A word on the AC50: it is the concentration at which the activity in the assay is half-maximal. `O=C(COc1ccc(/C=N/NC(=O)C(=O)N2CCCCCC2)cc1)Nc1ccccc1Cl`: the cell number change is -4.77%. Under setting [1], the AC50 is 0.058 µM [falling, full curve, poor fit].

On to `O=C(Nn1cnnc1)c1ccc(Cl)cc1`, for which the cell number change is -16.1%. Further, the AC50 under setting [1] was 0.164 µM [falling, full curve, poor fit].

For the compound `O=C(NC1CCCCC1)C(c1ccccn1)N(C(=O)c1csnn1)c1ccccc1F` (stereo unspecified), the cell number change was 13.9%.

Take `O=C(CCC(=O)Nc1ccc(F)cc1)N/N=C/c1ccccc1O`: the cell number change stood at 19.3%. Further, the AC50 under setting [1] is 0.092 µM [falling, full curve, poor fit].

For `COc1cc(OC)cc(C(=O)Nc2nc(-c3ccccc3)c(-c3ccccc3)o2)c1`, the cell number change was 16.7%. Further, the AC50 under setting [1] was 5.8 µM [falling, partial curve].

`O=C(NCc1ccccc1CN1CCCC1)c1cc2ccccc2o1`: the cell number change is -2.89%.

For `CC1=CC(C/C(C)=C/COc2ccc3ccc(=O)oc3c2)OC1=O` (stereo unspecified), the cell number change was 3.42%. The AC50 under setting [1] is 0.0164 µM [rising, full curve, poor fit].

For the compound `FC(F)(F)Oc1ccc(-c2cn3cccnc3n2)cc1`, the AC50 is 0.58 µM [falling, full curve] under setting [2] and 0.651 µM [falling, full curve] under setting [1].

In the case of `N#CCc1c(C#N)c(N)nc(Nc2ccccc2)c1C#N`, the cell number change is -15.5%. The AC50 under setting [1] is 1.3 µM [rising, full curve].

In the case of `CCn1c(CNS(=O)(=O)c2ccc(Cl)cc2)n[nH]c1=S`, the cell number change is -106%. Moreover, the AC50 under setting [2] was 18.4 µM [falling, partial curve, poor fit]. Also, the AC50 under setting [1] is 6.51 µM [falling, single point].

For `COc1ccccc1OCCNC(=O)Cc1ccc(S(=O)(=O)N2CCOCC2)s1`, the cell number change is -9.62%. For the same compound, the AC50 under setting [1] is 29.1 µM [rising, partial curve, poor fit].

Regarding `Cc1ccc(S(=O)(=O)CC(=O)N(CCCN2CCOCC2)c2nc3c(F)cccc3s2)cc1`, the cell number change is -29.7%.

For `O=C(NC1CC1)c1ccc(C2SCC(=O)N2Cc2ccccc2)cc1` (stereo unspecified), the cell number change was -33.5%. The AC50 under setting [2] was 32.6 µM [falling, single point]. Also, under setting [1], the half-maximal activity concentration (AC50) was 29.1 µM [falling, single point].

`Cc1ccc(S(=O)(=O)Nc2ccc3c(c2)nc(CCN2CCN(c4ccccn4)CC2)n3C)cc1`: the AC50 under setting [1] was 20.6 µM [falling, single point].

Take `Cc1ccc(Nc2nc(C(=O)N3CCC(C(=O)NCc4ccccc4)CC3)cs2)cc1`: the cell number change was -23.6%.

On to `COc1ccc(C(=O)COC(=O)c2cc([N+](=O)[O-])ccc2N2CCOCC2)c(OC)c1`, for which the cell number change worked out at 156%. For the same compound, under setting [2], the AC50 was 11.6 µM [rising, partial curve].

On to `Cc1nn2cc(-c3ccc(Cl)cc3)cnc2c1Br`, for which the cell number change was -70.8%. For the same compound, the AC50 under setting [2] is 29.1 µM [falling, single point]. Also, under setting [1], the AC50 was 0.0651 µM [falling, full curve, poor fit].

With `CC(C)(C)NC(=O)COc1ccc2oc3c(c2c1)CCCC3`, the cell number change was -1.59%.

For `CN(c1ccc(F)cc1)S(=O)(=O)c1ccc(Cl)c(C(=O)Nc2ccncc2)c1`, the AC50 under setting [1] is 6.51 µM [rising, single point].

Consider `Cc1ccccc1N1CC(=O)N(c2ccccc2C)CC1=O`, for which the cell number change is 12.9%.

In the case of `CCOC(=O)c1c(-c2ccc(C)o2)csc1NC(=O)CN1CCCCC1`, the cell number change amounted to 33.9%. Also, the AC50 under setting [2] is 0.0116 µM [rising, full curve].

As to `O=C(NCc1ccco1)C1CCCN(S(=O)(=O)c2cccc3nsnc23)C1` (stereo unspecified), the AC50 under setting [1] is 6.51 µM [rising, partial curve, poor fit].

In the case of `CCc1nc(NCCCn2ccnc2)c2oc3ccccc3c2n1`, the cell number change came to 1.43%. Moreover, under setting [1], the AC50 is 0.259 µM [rising, full curve].

`CN(C(=O)CN1C(=O)S/C(=C\c2ccccc2F)C1=O)C1CCS(=O)(=O)C1` (stereo unspecified): the cell number change came to 71.8%. Also, the AC50 under setting [2] was 29.1 µM [rising, single point].

On to `CN(CC(=O)N1CCCC1)S(=O)(=O)c1ccc(Cl)cc1`, for which the cell number change came out at 4.75%.

For the compound `O=C(CSc1nnc(-c2cccnc2)n1Cc1ccco1)N1CCc2ccccc21`, the cell number change was -15.7%. Further, the AC50 under setting [1] was 0.146 µM [rising, full curve, poor fit].

Regarding `Cc1cc(OCC(=O)N(C(C)C)C(C)C)cc(C)c1Br`, the cell number change is -18.1%. For the same compound, the AC50 under setting [2] was 0.517 µM [rising, single point]. Besides, under setting [1], the AC50 was 29.1 µM [rising, single point].

Regarding `Cc1cccc(N2CCN(C(=O)CCn3c(=S)[nH]c4cc5c(cc4c3=O)OCO5)CC2C)c1` (stereo unspecified), the cell number change is 99.6%. In addition, under setting [2], the AC50 is 14.6 µM [rising, partial curve]. Besides, the AC50 under setting [1] is 0.58 µM [falling, single point].

Regarding `CSc1nc2nccc(/C=C\c3ccccc3)n2n1`, the cell number change is -78.9%. Further, under setting [2], the AC50 was 18.4 µM [falling, single point]. For the same compound, under setting [1], the AC50 was 18.4 µM [falling, single point].

In the case of `O=C(CCCCl)NC(=S)Nc1cc(C(F)(F)F)ccc1N1CCOCC1`, the AC50 under setting [2] was 3.66 µM [falling, single point].

On to `S=C(NC12CC3CC(CC(C3)C1)C2)N1CCCC1`, for which, under setting [2], the AC50 was 0.092 µM [rising, full curve, poor fit].

In the case of `CC(C)(C)OC(=O)[C@H](Cc1ccccc1)NC(=O)c1nc[nH]c1C(=O)NCCCCCN`, the cell number change was found to be 15%. Also, the AC50 under setting [1] is 20.6 µM [rising, partial curve, poor fit].

`Cc1c(NC(=O)CSc2nnnn2Cc2ccccc2)c(=O)n(-c2ccccc2)n1C`: the cell number change was 30.6%. Also, the AC50 under setting [2] is 5.17 µM [rising, partial curve, poor fit].

With `Cc1ccccc1OCCn1cc(C(=O)C(=O)N2CCOCC2)c2ccccc21`, the cell number change stood at 17.8%.

With `C=CCSC1=N/C(=C\c2sccc2C)C(=O)S1`, the cell number change amounted to 28.8%. Under setting [1], the half-maximal activity concentration (AC50) is 29.1 µM [rising, single point].

As for `CN(C)/C=C(\C#N)C(=O)c1cccc(Oc2ccc(Br)cc2)c1`, the cell number change is -26.1%. Besides, under setting [1], the AC50 was 20.6 µM [falling, single point].

Consider `C#CCSc1ncc(-c2ccccc2)cn1`, for which the cell number change came to 65.8%. In addition, under setting [2], the AC50 is 18.4 µM [rising, single point]. Also, the AC50 under setting [1] was 18.4 µM [rising, single point].

For the compound `O=C(COc1ccc(F)cc1)Nc1ccc(-n2cnnn2)cc1`, the cell number change stood at 35%. In addition, under setting [2], the AC50 is 2.06 µM [rising, partial curve, poor fit]. Besides, the AC50 under setting [1] is 2.06 µM [rising, single point].

With `C=CCn1c(COc2ccc(CC)cc2)nnc1SCC(=O)NC1CCS(=O)(=O)C1` (stereo unspecified), the cell number change is -18.2%. In addition, the AC50 under setting [2] is 1.3 µM [falling, full curve]. Also, the half-maximal activity concentration (AC50) under setting [1] was 3.66 µM [falling, full curve].

As for `COc1ccc(NS(=O)(=O)c2ccc(S(=O)(=O)N3CCOCC3)cc2)cc1`, the cell number change turned out to be 75%. Also, the AC50 under setting [2] was 16.4 µM [rising, single point].

For the compound `CSc1ccc(Cl)c(C(=O)Nc2ccc(C)cn2)c1`, the cell number change is 26.7%. Further, the AC50 under setting [1] is 6.51 µM [falling, single point].

On to `Cc1nccnc1Sc1ccccc1`, for which the cell number change came to 15.8%. Also, the AC50 under setting [1] was 13 µM [falling, single point].

Regarding `COc1nccnc1NS(=O)(=O)c1ccc(NC(=S)NC(=O)/C=C/c2ccccc2)cc1`, the cell number change is -3.53%. For the same compound, the AC50 under setting [2] was 6.51 µM [rising, single point].

Turning to `CCCOc1ccc(C(=O)N2CCCC2C(=O)O)cc1` (stereo unspecified), the cell number change was -12.3%. Further, the AC50 under setting [1] is 0.116 µM [falling, full curve, poor fit].

Regarding `Cc1csc(NC(=O)c2ccc[nH]c2=O)n1`, the cell number change worked out at 13.8%. Besides, the AC50 under setting [1] is 29.1 µM [rising, single point].

In the case of `CCCCOc1ccc(C(=O)N/C(=C/C=C/c2ccccc2)C(=O)O)cc1`, the cell number change came out at 72%. Under setting [2], the AC50 is 29.1 µM [rising, single point].

For `COc1ccc(NC(=O)NN2CCN(C)CC2)cc1OC`, the cell number change came out at 16.2%. For the same compound, the concentration at half-maximal activity (AC50) under setting [1] was 6.51 µM [rising, single point].

On to `O=C(/C=C/c1ccc(Cl)cc1)Nc1ccc(N2CCOCC2)cc1`, for which the cell number change came to 11.9%. In addition, the AC50 under setting [2] was 6.51 µM [falling, single point].

Consider `CCC1Oc2ccc(C)cc2N(CC(=O)N(Cc2ccc3c(c2)OCO3)CC2CCCO2)C1=O` (stereo unspecified), for which the cell number change was -1.26%. Also, the half-maximal activity concentration (AC50) under setting [1] is 3.26 µM [rising, partial curve].

`O=C(CCc1ccccc1)NNC(=O)Nc1ccccc1`: the cell number change worked out at 20.1%.

Turning to `CC(=O)N1CCN(CC(=O)Nc2cc(F)ccc2C)CC1`, the cell number change is 4.99%. Also, the AC50 under setting [1] is 0.00517 µM [rising, full curve, poor fit].

Regarding `COc1cc(/C=C(\C#N)C(=O)Nc2ccc3ccccc3c2)c([N+](=O)[O-])cc1OC`, the AC50 under setting [1] is 3.66 µM [rising, single point].

As for `O=C(NC1=NCCS1)c1ccccc1OCc1ccc(F)cc1`, the cell number change is 6.65%.

Consider `C=CCn1cccc(/C=C/C(=O)c2ccc(C(C)(C)C)cc2)c1=S`, for which the cell number change was -62.2%. Besides, the AC50 under setting [2] is 29.1 µM [falling, single point]. For the same compound, the AC50 under setting [1] was 29.1 µM [falling, single point].

Turning to `CC(=O)NCCNS(=O)(=O)c1ccc(C)c([N+](=O)[O-])c1`, the cell number change was 30.8%. For the same compound, under setting [2], the AC50 is 32.6 µM [rising, single point]. The AC50 under setting [1] is 29.1 µM [rising, single point].

As to `Cc1cc(C)n(C(=O)Cn2nc(C)c(Br)c2C)n1`, the cell number change is -14%. Moreover, the AC50 under setting [1] is 5.8 µM [falling, single point].

On to `COc1ccc(CNC(=O)C2CCN(S(=O)(=O)c3cccc4nsnc34)CC2)cc1`, for which the cell number change was found to be 28.1%. Besides, the AC50 under setting [1] is 29.1 µM [rising, single point].

Consider `O=C(NNC(=O)c1ccc(NC(=O)c2ccccc2)cc1)c1ccc(F)cc1`, for which the cell number change came to 30.8%.

Regarding `COc1ccc(-c2cc(C(=O)NN)[nH]n2)cc1`, the AC50 under setting [2] is 6.51 µM [rising, partial curve, poor fit] and the AC50 under setting [1] is 2.59 µM [rising, single point].

Regarding `CC(=O)Nc1cccc(NC(=O)CSc2ccc(-c3ccco3)nn2)c1`, the cell number change is -10.4%.

Regarding `S=C(NCCc1ccccn1)NC1CC2CCC1C2` (stereo unspecified), the cell number change was -0.121%.

With `COc1ccc(C2CC(=O)C(C=NCCN3CCNCC3)=C(O)C2)cc1OC` (stereo unspecified), the cell number change is -3.51%. Also, the AC50 under setting [1] was 0.184 µM [falling, full curve, poor fit].
